In the experiment the test system is L1210 leukemia ip in BDF1 mice, survival T/C. The experiment in a line: NCI In Vivo Anticancer Drug Screen. Data for tumor model L1210 Leukemia (intraperitoneal) in B6D2F1 (BDF1) mice. The settings on record: T/C endpoint: mean survival time, higher T/C = longer survival.
Setting [1] is: dose: 100.0 mg/kg/injection, schedule: Q01DX009 (ip), vehicle: saline.
Where [2] appears, read: dose: 200.0 mg/kg/injection, schedule: Q01DX009 (ip), vehicle: saline.
The mark [3] stands for this setting: dose: 400.0 mg/kg/injection, schedule: Q01DX001 (ip), vehicle: saline.
Setting [4] is: dose: 200.0 mg/kg/injection, schedule: Q04DX002 (ip), vehicle: Klucel (hydroxypropylcellulose) (HPC).
[5] abbreviates: dose: 400.0 mg/kg/injection, schedule: Q01DX009 (ip), vehicle: saline with Tween-80.
Setting [6] is: dose: 400.0 mg/kg/injection, schedule: Q04DX003 (ip), vehicle: saline with Tween-80.
Setting [7] is: dose: 400.0 mg/kg/injection, schedule: Q04DX002 (ip), vehicle: Klucel (hydroxypropylcellulose) (HPC).
Where [8] appears, read: dose: 100.0 mg/kg/injection, schedule: Q04DX003 (ip), vehicle: saline with Tween-80.
Setting [9] is: dose: 200.0 mg/kg/injection, schedule: Q04DX003 (ip), vehicle: saline with Tween-80.

28 compounds from PubChem BioAssay AID248 (DTP/NCI, 2004) can be followed below.

The list is a part of this screen's results and no random one: it is rich in T/C values a quarter to a half above the control, in often repeated tests (any T/C) and in doses without a T/C. Other doses and runs of a compound stand elsewhere. T/C gives the treated animals as a percentage of the vehicle group. Some doses have a count of surviving animals in place of a T/C: the source files T/C as zero there, which appears to mark a toxic dose or a test without result, not a measured value. Some survivor counts are full or nearly so, which does not show that the dose was tolerated: the source hardly ever lists a survival T/C far under the control, and the zero likely stands for such cases as well. Counts of survivors are from the toxicity check (mostly the fifth day) where no day follows; animals may have died later. Schedules are NCI's codes, taken here to give the interval after Q, in days (D) or hours (H), and the number of doses after X. Some schedules carry Z or #; the key to these is not given. Where survival is the endpoint, this PubChem deposit counts one and a half times the control or more as active, and values a quarter to a half above the control carry no call in these data; other NCI protocols may use other cut-offs.

As for `O=C1C(Br)=CC(=NCl)C=C1Br`, the survivor count by setting is: (dose: 25.0 mg/kg/injection, schedule: Q01DX009 (ip), vehicle: DMSO) 3 of 6; (dose: 50.0 mg/kg/injection, schedule: Q04DX002 (ip), vehicle: DMSO) 1 of 3; (dose: 100.0 mg/kg/injection, schedule: Q04DX002 (ip), vehicle: DMSO) 0 of 3; (dose: 200.0 mg/kg/injection, schedule: Q04DX002 (ip), vehicle: DMSO) 0 of 3; (dose: 400.0 mg/kg/injection, schedule: Q04DX002 (ip), vehicle: DMSO) 0 of 3.

Turning to `OC1(CCCc2ccccc2)CCNCC1`, for the setting “dose: 300.0 mg/kg/injection, schedule: Q01DX001 (ip), vehicle: saline”, the survivor count is 1 of 6.

In the case of `ON=C(CCl)CCl`, the survivor count was 0 of 3 (dose: 12.5 mg/kg/injection, schedule: Q01DX009 (ip), vehicle: saline); 0 of 3 (dose: 25.0 mg/kg/injection, schedule: Q01DX009 (ip), vehicle: saline); 0 of 6 (dose: 50.0 mg/kg/injection, schedule: Q01DX001 (ip), vehicle: saline); 0 of 3 (dose: 50.0 mg/kg/injection, schedule: Q01DX009 (ip), vehicle: saline); 0 of 6 (dose: 100.0 mg/kg/injection, schedule: Q01DX001 (ip), vehicle: saline); 0 of 3 under setting [1]. In addition, the survivor count runs as follows: (dose: 200.0 mg/kg/injection, schedule: Q01DX001 (ip), vehicle: saline) 0 of 6; under setting [2], 0 of 3; under setting [3], 0 of 6.

Turning to `Cc1cc(C)n(C(=O)Nc2ccccc2)n1`, the survivor count (dose: 400.0 mg/kg/injection, schedule: Q04DX002 (ip), vehicle: saline with Tween-80) is 1 of 3.

With `Oc1c(Cl)cc(Cl)c2cccnc12`, the survivor count by setting is: (dose: 200.0 mg/kg/injection, schedule: Q01DX001 (ip), vehicle: carboxymethylcellulose (CMC)) 0 of 4; (dose: 200.0 mg/kg/injection, schedule: Q01DX009 (ip), vehicle: saline with Tween-80) 4 of 6; (dose: 400.0 mg/kg/injection, schedule: Q01DX001 (ip), vehicle: carboxymethylcellulose (CMC)) 0 of 4.

Regarding `CCOC(=N)CCl`, the survivor count (dose: 200.0 mg/kg/injection, schedule: Q04DX003 (ip), vehicle: saline) is reported as 1 of 6.

In the case of `c1ccc(N2CCOCC2)cc1`, the survivor count (dose: 50.0 mg/kg/injection, schedule: Q01DX009 (ip), vehicle: saline with Tween-80) is listed as 3 of 3.

On to `Cc1cc(=O)n2c3c(cc(C#N)cc13)OC2`, for which the survivor count under setting [4] is recorded as 5 of 6.

For the compound `C=C(C)C1(O)C=CC(=O)O1` (configuration not stated), the survivor count is recorded as 1 of 6 under setting [1]; 0 of 6 under setting [2]; 0 of 6 (dose: 400.0 mg/kg/injection, schedule: Q01DX009 (ip), vehicle: saline).

Consider `OCCN(CC1C(c2ccccc2)C1c1ccccc1)C1CCCCC1` (configuration not stated), for which the survivor count is reported as 3 of 3 (dose: 12.5 mg/kg/injection, schedule: Q04DX002 (ip), vehicle: Klucel (hydroxypropylcellulose) (HPC)) and 2 of 3 (dose: 25.0 mg/kg/injection, schedule: Q04DX002 (ip), vehicle: Klucel (hydroxypropylcellulose) (HPC)).

As to `CC(C)=NNC(=O)c1ccc(N)cc1`, under setting [5], the survivor count is 0 of 6.

Regarding `CCCCCC(CN(C)C)C(=O)/C=C/c1c(Cl)cccc1Cl` (configuration not stated), the survivor count reads like this: (dose: 50.0 mg/kg/injection, schedule: Q01DX009 (ip), vehicle: Klucel (hydroxypropylcellulose) (HPC)) 6 of 6; (dose: 100.0 mg/kg/injection, schedule: Q01DX009 (ip), vehicle: Klucel (hydroxypropylcellulose) (HPC)) 2 of 6.

In the case of `CCCCCCCCCCS(=O)(=O)CC(=O)O`, the survivor count reads like this: (dose: 400.0 mg/kg/injection, schedule: Q04DX003 (ip), vehicle: Klucel (hydroxypropylcellulose) (HPC)) 1 of 6; under setting [6], 0 of 6.

For `COC(=O)N1C(c2ccccc2)CS1(=O)=O` (configuration not stated), the survivor count by setting is: under setting [4], 0 of 3; under setting [7], 0 of 3.

For `O=C1C2(c3ccccc3)C(c3ccccc3)=C(c3ccccc3)C1(c1ccccc1)C1CC=CC12` (configuration not stated), under setting [5], the survivor count was 3 of 6.

Consider `O=C(Nc1ccc(CC2=NCCN2)cc1)c1ccc(C(=O)Nc2ccc(CC3=NCCN3)cc2)cc1`, for which the survivor count is on record as 0 of 6 (dose: 15.0 mg/kg/injection, schedule: Q01DX Z (ip), vehicle: saline); 0 of 6 (dose: 30.0 mg/kg/injection, schedule: Q01DX Z (ip), vehicle: saline); 0 of 6 (dose: 60.0 mg/kg/injection, schedule: Q01DX Z (ip), vehicle: saline); 0 of 6 (dose: 120.0 mg/kg/injection, schedule: Q01DX Z (ip), vehicle: saline).

With `COc1ccc(C=Nc2ccc(Cl)cc2)cc1`, where the note is “dose: 400.0 mg/kg/injection, schedule: Q01DX009 (ip), vehicle: Klucel (hydroxypropylcellulose) (HPC)”, the survivor count is on record as 6 of 6.

Turning to `CC(=O)NC1CCCC(C)N1` (configuration not stated), the survivor count under setting [3] is 0 of 6.

Consider `CCOC(=O)C(Br)C(=O)OCC`, for which the survivor count was 1 of 6 (dose: 37.5 mg/kg/injection, schedule: Q01DX009 (ip), vehicle: saline with Tween-80) and 0 of 6 (dose: 75.0 mg/kg/injection, schedule: Q01DX009 (ip), vehicle: saline with Tween-80).

As for `CN(C(=O)N(CCCl)N=O)C1CCC(C(=O)O)CC1` (configuration not stated), the T/C runs as follows: (dose: 90.0 mg/kg/injection, schedule: Q01DX009 (ip), vehicle: alkali diluted with saline) 143 % of control; (dose: 268.0 mg/kg/injection, schedule: Q01DX001 (ip), vehicle: saline + Tween-80 + alkali) 139 % of control.

`COC(=O)C12Oc3ccc(-c4ccc5c(c4O)C(O)=C4C(=O)CC(C)C(O)C4(C(=O)OC)O5)c(O)c3C(O)=C1C(=O)CC(C)C2O` (configuration not stated): the survivor count reads like this: (dose: 12.5 mg/kg/injection, schedule: Q01DX009 (ip), vehicle: saline with Tween-80) 3 of 6; (dose: 25.0 mg/kg/injection, schedule: Q01DX009 (ip), vehicle: saline with Tween-80) 6 of 6; (dose: 50.0 mg/kg/injection, schedule: Q04DX003 (ip), vehicle: saline with Tween-80) 6 of 6; under setting [8], 5 of 6; under setting [9], 2 of 6.

For the compound `Cc1cc(C(C)(C)C)ccc1SC(=O)Nc1cc([N+](=O)[O-])ccc1Cl`, the survivor count (dose: 400.0 mg/kg/injection, schedule: Q01DX009 (ip), vehicle: gum acacia) is listed as 6 of 6.

For `N#CSCc1ccccc1Cl`, the survivor count runs as follows: under setting [8], 0 of 6; under setting [9], 0 of 6; under setting [6], 0 of 6.

For `COC(=O)c1n[nH]c(C)c1N=NN1CCC(C(N)=O)CC1`, the survivor count by setting is: (dose: 75.0 mg/kg/injection, schedule: Q01DX001 (ip), vehicle: other) 6 of 6; (dose: 150.0 mg/kg/injection, schedule: Q01DX001 (ip), vehicle: other) 4 of 6; (dose: 300.0 mg/kg/injection, schedule: Q01DX001 (ip), vehicle: other) 0 of 6.

On to `CCN(CC)CCO[C@H]1CC[C@@]2(C)C(=CC[C@@H]3[C@@H]2CC[C@]2(C)C(=O)CC[C@@H]32)C1`, for which the survivor count (dose: 200.0 mg/kg/injection, schedule: Q01DX001 (sc), vehicle: steroid suspending solution) is 3 of 6 and the survivor count (dose: 400.0 mg/kg/injection, schedule: Q01DX001 (sc), vehicle: steroid suspending solution) was 1 of 6.

For `COc1ccc(Cl)cc1[N+](=O)[O-]`, under “dose: 100.0 mg/kg/injection, schedule: Q01DX001 (ip), vehicle: Klucel (hydroxypropylcellulose) (HPC)”, the survivor count was 6 of 6.

As for `CCN(CC)CCCC(C)NC(=O)c1ccc(Cl)nc1` (configuration not stated), the survivor count under setting [5] is reported as 1 of 6.

For `C/C=C/C=N/n1c(CCC)nc2ccccc2c1=O`, under setting [7], the survivor count is reported as 2 of 3.
